From patent US7375248B2, “Inhibitors of matrix metalloproteinase” (Glaxo Group Limited, priority 2003, dated 2008)
pIC50: −log10 of the molar value. Some entries share one result that the patent states for a list of compounds.

By UniProt entry, the sequences of proteins in these tests, tags left out. Residues count along the entry.
UniProt P39900, 106-268: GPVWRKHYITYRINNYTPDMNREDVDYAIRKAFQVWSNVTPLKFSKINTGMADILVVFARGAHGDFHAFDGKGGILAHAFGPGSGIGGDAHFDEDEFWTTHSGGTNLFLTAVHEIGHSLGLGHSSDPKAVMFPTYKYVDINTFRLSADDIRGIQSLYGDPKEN

Molecular target: T1, MMP12 catalytic domain (residues 106-268) (Homo sapiens, UniProt P39900)
T1 construct: MMP12 catalytic domain (residues 106-268) protein was expressed in E. coli; made in house; host or cells: E. coli
Experiment: MMP-12 fluorescent peptide substrate assay
Type: biochemical
Conditions: FAM/TAMRA peptide substrate 2 uM, 20 nM enzyme, 120 min at ambient temperature, pH 7.5

| Compound | pIC50 |
| --- | --- |
| CS(=O)(=O)N(CC(=O)O)c1ccc(-c2ccc(C#N)cc2)cc1 [Example 1, [(4′-Cyano-1,1′-biphenyl-4-yl)(methylsulfonyl)amino]acetic acid] | > 4.00 |
| CS(=O)(=O)N(CC(=O)O)c1ccc(-c2cccc(C#N)c2)cc1 [Example 6, [(3′-Cyano-1,1′-biphenyl-4-yl)(methylsulfonyl)amino]acetic acid] | > 4.00 |
| Cc1ccc(-c2ccc(N(CC(=O)O)S(C)(=O)=O)cc2)cc1 [Example 5, [(4′-Methyl-1,1′-biphenyl-4-yl)(methylsulfonyl)amino]acetic acid] | > 4.00 |
| CS(=O)(=O)N(CC(=O)O)c1ccc(-c2ccccc2)cc1 [Example 9, [(1,1′-Biphenyl-4-yl)(methylsulfonyl)amino]acetic acid] | > 4.00 |
| CC(=O)c1cccc(-c2ccc(N(CC(=O)O)S(C)(=O)=O)cc2)c1 [Example 7, [(3′-Acetyl-1,1′-biphenyl-4-yl)(methylsulfonyl)amino]acetic acid] | > 4.00 |
| COc1ccc(-c2ccc(N(CC(=O)O)S(C)(=O)=O)cc2)cc1 [Example 4, [(4′-Methoxy-1,1′-biphenyl-4-yl)(methylsulfonyl)amino]acetic acid] | > 4.00 |
| CCOc1ccc(-c2ccc(N(CC(=O)O)S(C)(=O)=O)cc2)cc1 [Example 8, [(4′-Ethoxy-1,1′-biphenyl-4-yl)(methylsulfonyl)amino]acetic acid] | > 4.00 |
| CC(=O)c1ccc(-c2ccc(N(CC(=O)O)S(C)(=O)=O)cc2)cc1 [Example 3, [(4′-Acetyl-1,1′-biphenyl-4-yl)(methylsulfonyl)amino]acetic acid] | > 4.00 |
| CS(=O)(=O)N(CC(=O)O)c1ccc(-c2cccnc2)cc1 [Example 10, [(pyridin-3-ylphenyl-4-yl)(methylsulfonyl)amino]acetic acid (i.e. N-(methylsulfonyl)-N-(4-pyridin-3-ylphenyl)glycine)] | > 4.00 |
| CC(C)CCOc1ccc(N(CC(=O)O)S(C)(=O)=O)cc1 [Example 11, N-{4-[(3-Methylbutyl)oxy]phenyl}-N-(methylsulfonyl)glycine] | > 4.00 |
| CS(=O)(=O)N(CC(=O)O)c1ccc(-c2ccc(OC(F)(F)F)cc2)cc1 [Example 2, {(Methylsulfonyl)[4′-(trifluoromethoxy)-1,1′-biphenyl-4-yl]amino}acetic acid] | > 4.00 |
